Results taken from patent publication US20250073355A1, “CD44-BINDING PEPTIDE REAGENTS AND METHODS” (THE REGENTS OF THE UNIVERSITY OF MICHIGAN, priority 2021, published 2025).

System: human HCC specimens
Assay: Peptide validation in human HCC specimens ex vivo (immunofluorescence)
Protocol: A tissue microarray (TMA) of human HCC was generated to investigate specific binding by the CD44 peptide to human HCC. Formalin-fixed, paraffin-embedded (FFPE) sections of human liver were obtained from the archived tissue bank in the Department of Pathology. The specimens were washed 3× in xylene for 3 min, 100% ethanol for 3 min, 95% ethanol for 3 min, 70% ethanol for 3 min, rinsed in H2O for 2 min. Antigen unmasking was performed by boiling the slides in 10 mM sodium citrate buffer with 0.05% Tween at pH 6.0 for 15 min. The slides were cooled to RT, and were washed in H2O 3× for 5 min. Blocking was performed with DAKO protein blocking agent (X0909, DAKO) for 1 hour at RT. The peptides at 1 μM concentration were incubated for 10 min at RT. The sections were washed 3× in PBST for 3 min, and incubated with 400 μL at 1:500 dilution of recombinant anti-CD44 (#ab189524, Abcam) overnight at 4° C. The sections were then washed 3× in PBST for 5 min. A 1:500 dilution of AF488-labeled secondary antibody (goat anti rabbit Alexa Fluor®488) was added to each section and incubated for 1 hour at RT. The secondary antibody solution was removed and washed 3× with PBST for 5 min. The sections were then mounted with ProLong Gold reagent containing DAPI (Invitrogen). The fluorescence images of each specimen were collected using confocal microscopy (SP8, Leica), and the mean fluorescence intensity from each image was measured from 3 boxes with dimensions of 20×20 μm^2 using custom MATLAB software. Regions of saturated image intensities were avoided.

CC(C)C[C@H](NC(=O)[C@H](Cc1ccc(O)cc1)NC(=O)[C@H](CO)NC(=O)[C@H](Cc1c[nH]c2ccccc12)NC(=O)CNC(=O)[C@H](CCCCN)NC(=O)[C@@H](N)Cc1c[nH]c2ccccc12)C(=O)N[C@@H](Cc1c[nH]c2ccccc12)C(=O)N[C@H](C(=O)N[C@@H](CCC(N)=O)C(=O)N[C@@H](CCC(N)=O)C(=O)N[C@@H](C)C(=O)NCC(=O)NCC(=O)NCC(=O)N[C@@H](CO)C(=O)N[C@@H](CSC1CC(=O)N(CCNC(=O)CCCCCN2C(=CC=C3CCCC(C=CC4=[N+](CCCCS(=O)(=O)[O-])c5ccc(S(=O)(=O)O)cc5C4(C)C)=C3Oc3ccc(S(=O)(=O)O)cc3)C(C)(C)c3cc(S(=O)(=O)O)ccc32)C1=O)C(N)=O)[C@@H](C)O (stereo partly drawn) [WKG*-IRDye800]
AUC (ROC) (distinguish HCC from cirrhosis): 0.79
sensitivity (ROC) (distinguish HCC from cirrhosis): 87%
specificity (ROC) (distinguish HCC from cirrhosis): 69%
AUC (ROC) (distinguish HCC from non-HCC): 0.87
sensitivity (ROC) (distinguish HCC from non-HCC): 87%
specificity (ROC) (distinguish HCC from non-HCC): 79%
